{
  "source": "patent US9849212B2",
  "about": "“Implants for inducing soft and hard tissue integration” (NUMAT BIOMEDICAL S.L., priority 2013, dated 2017)",
  "assay_type_in_all_cases": "physicochemical",
  "key": {"[1]": {"test": "Flavonoid release profile by UV-Vis spectroscopy, simulating HGF culture media changes", "conditions": "water pH 7.5, 37° C.", "procedure": "(§1) The flavonoid release profile from coated surfaces in water media, simulating physiologic conditions (pH 7.5, 37° C.) was measured by UV-Vis spectroscopy. Implants were placed in a 96 well plate and 200 μl of water at pH 7.5 were added to each well. […] Each time, a 150 μl aliquot was withdrawn and the absorbance (λTaxifolin=290 nm, λQuercitrin=350 nm) was measured in a 96 well Elisa plate using a Biotek UV-vis plate reader spectrophotometer. The concentration of flavonoid was calculated from interpolation of data in flavonoid standard calibration curves. Two replicates were measured for each sample. Passivated Ti substrates were used as blank samples for drop casted implants. Silanized Ti substrates were used as blank for covalently linked samples."}, "[2]": {"test": "Biomolecule release by UV-vis spectrometry after 24 h incubation in water", "conditions": "covalent linking via APTES, water pH 7.5, 37° C.", "procedure": "The biomolecule release from functionalized implants after 24 h incubation in water at pH 7.5 and 37° C. was determined by UV-Vis spectroscopy. Implants were placed in a 96 well plate and 200 μl of water at pH 7.5 were added to each well. Samples were incubated at 37° C. during 24 h. Then, a 150 μl aliquot was withdrawn and the absorbance (λmax taxifolin=290 nm, λmax quercitrin=350 nm) was measured using a Biotek UV-vis plate reader spectrophotometer. Two sample replicates were measured."}, "[3]": {"test": "Flavonoid release profile by UV-Vis spectroscopy, simulating hUC-MSCs culture media changes", "procedure": "as §1"}},
  "note": "At least one compound was matched to its structure with a doubt left.",
  "data": [
    {"smiles": "C[C@@H]1O[C@@H](Oc2c(-c3ccc(O)c(O)c3)oc3cc(O)cc(O)c3c2=O)[C@H](O)[C@H](O)[C@H]1O", "note": "[QR, quercitrin]", "values": [
      {"measurement": "total amount released after 14 days", "setting": "[1]; Schiff base, not reduced (experiment FL14)", "value": "1.54 ± 0.09", "unit": "nmol"},
      {"measurement": "share of the initially added amount released to the media after 1 day", "setting": "[1]; drop casted substrates (experiment FL13), 100 nmol/disk quercitrin", "value": 81.7, "unit": "%"},
      {"measurement": "flavonoid released to the media after 1 h of incubation", "setting": "[1]; drop casted substrates (experiment FL13), initial 6 nmol/disk taxifolin, 100 nmol/disk quercitrin", "value": "72.8 ± 4.1", "unit": "nmol"},
      {"measurement": "amount released to media from day 4 to day 14", "setting": "[1]; drop casted substrates (experiment FL13)", "value": "not detectable"},
      {"measurement": "flavonoid detected in the media", "setting": "[1]; reduced Schiff base surfaces (experiment FL15), up to 14 days", "value": "No taxifolin neither quercitrin were detected"},
      {"measurement": "C μM, 24 h (release of flavonoid to water media)", "setting": "[2]; Ti pretreat. UV, reduction step No (Schiff base)", "value": "3.33 ± 0.10", "unit": "µM"},
      {"measurement": "C μM, 24 h (release of flavonoid to water media)", "setting": "[2]; Ti pretreat. UV, reduction step Yes (reduced Schiff base)", "value": "No det."},
      {"measurement": "C μM, 24 h (release of flavonoid to water media)", "setting": "[2]; Ti pretreat. passivation, reduction step No (Schiff base)", "value": "8.54 ± 0.41", "unit": "µM"},
      {"measurement": "C μM, 24 h (release of flavonoid to water media)", "setting": "[2]; Ti pretreat. passivation, reduction step Yes (reduced Schiff base)", "value": "No det."},
      {"measurement": "total amount released after 14 days", "setting": "[3]; Schiff base, not reduced (experiment FL17), water pH 7.5, 37° C.", "value": "1.51 ± 0.04", "unit": "nmol"},
      {"measurement": "total amount released as share of the expected value", "setting": "[3]; drop casted substrates (experiment FL16), expected 50 nmol quercitrin", "value": 78, "unit": "%"},
      {"measurement": "total amount released to media", "setting": "[3]; drop casted substrates (experiment FL16), initial 20 nmol/disk taxifolin, 50 nmol/disk quercitrin, water pH 7.5, 37° C., up to 14 days", "value": 39, "unit": "nmol"},
      {"measurement": "flavonoid detected in the media", "setting": "[3]; reduced Schiff base surfaces (experiment FL18), water pH 7.5, 37° C., up to 14 days", "value": "No taxifolin neither quercitrin were detected"}
    ]}
  ]
}
